Assay results reported in PubChem BioAssay AID248 (DTP/NCI, 2004).
The list does not hold the whole screen: it gathers some chemical classes. Other doses and runs of a compound may be missing. T/C gives the treated animals as a percentage of the vehicle group. Some doses have a count of surviving animals in place of a T/C: the source holds a T/C of zero for them, seemingly a mark for toxic or unscored doses. Counts of survivors are from the toxicity check (mostly the fifth day) where no day follows; animals may have died later. Schedules are NCI's codes, read here as Q, the interval in days (D) or hours (H), X, the number of doses. Where survival is the endpoint, this PubChem deposit counts one and a half times the control or more as active, and values a quarter to a half above the control carry no call in these data; other NCI protocols may use other cut-offs. Some entries hold several experiments; their values stand side by side, smallest first. Some schedules carry Z or #; the key to these is not given. Some T/C values are followed by the survivors on the day toxicity was checked, most often the fifth; without a count or a note in brackets, all were alive then.

System: L1210 leukemia ip in BDF1 mice, survival T/C
Experiment: NCI In Vivo Anticancer Drug Screen. Data for tumor model L1210 Leukemia (intraperitoneal) in B6D2F1 (BDF1) mice
Conditions: T/C endpoint: mean survival time, higher T/C = longer survival

NC(=O)c1[nH]cnc1/N=N\N(CCCl)CCCl
T/C (dose: 180.0 mg/kg/injection, schedule: Q04DX Z (ip), vehicle: carboxymethylcellulose (CMC)): 248 and 410 % of control
T/C (dose: 180.0 mg/kg/injection, schedule: Q04DX Z (sc), vehicle: carboxymethylcellulose (CMC)): 190 % of control
T/C (dose: 180.0 mg/kg/injection, schedule: Q08DX002 (ip), vehicle: carboxymethylcellulose (CMC)): 221 and 329 % of control
T/C (dose: 180.0 mg/kg/injection, schedule: Q08DX003 (ip), vehicle: carboxymethylcellulose (CMC)): 460 % of control
T/C (dose: 180.0 mg/kg/injection, schedule: Q08DX Z (ip), vehicle: carboxymethylcellulose (CMC)): 438 and 530 % of control
T/C (dose: 187.0 mg/kg/injection, schedule: Q01DX001 (ip), vehicle: carboxymethylcellulose (CMC)): 189 % of control
T/C (dose: 192.1 mg/kg/injection, schedule: Q01DX001 (ip), vehicle: steroid suspending solution): 483 % of control
T/C (dose: 200.0 mg/kg/injection, schedule: Q01DX001 (ip), vehicle: carboxymethylcellulose (CMC)): 133, 162, 175, 180, 225, 264 % of control
T/C (dose: 200.0 mg/kg/injection, schedule: Q01DX001 (ip), vehicle: saline): 217 and 228 % of control
T/C (dose: 200.0 mg/kg/injection, schedule: Q01DX001 (ip), vehicle: steroid suspending solution, evaluated on day 6): 217 % of control
T/C (dose: 200.0 mg/kg/injection, schedule: Q01DX001 (ip), vehicle: steroid suspending solution, evaluated on day 28): 186 % of control
T/C (dose: 200.0 mg/kg/injection, schedule: Q01DX001 (ip), vehicle: steroid suspending solution, evaluated on day 60): 154, 188, 217, 411, 437 % of control
T/C (dose: 200.0 mg/kg/injection, schedule: Q01DX001 (ip), vehicle: water): 369, 409, 621, 642 % of control
T/C (dose: 200.0 mg/kg/injection, schedule: Q01DX001 (iv), vehicle: water): 213, 301, 457 % of control
T/C (dose: 200.0 mg/kg/injection, schedule: Q01DX005 (ip), vehicle: carboxymethylcellulose (CMC)): 308 and 344 % of control
T/C (dose: 200.0 mg/kg/injection, schedule: Q01DX009 (ip), vehicle: carboxymethylcellulose (CMC)): 150 % of control
T/C (dose: 200.0 mg/kg/injection, schedule: Q01DX009 (ip), vehicle: water): 104 % of control [7 of 8 alive]
T/C (dose: 200.0 mg/kg/injection, schedule: Q01DX009 (oral), vehicle: carboxymethylcellulose (CMC)): 127 % of control
T/C (dose: 200.0 mg/kg/injection, schedule: Q01DX017 (ip), vehicle: carboxymethylcellulose (CMC)): 163 % of control
T/C (dose: 200.0 mg/kg/injection, schedule: Q01DX Z (oral), vehicle: carboxymethylcellulose (CMC)): 121 % of control
T/C (dose: 200.0 mg/kg/injection, schedule: Q02DX009 (ip), vehicle: carboxymethylcellulose (CMC)): 127 and 188 % of control
T/C (dose: 200.0 mg/kg/injection, schedule: Q03HX003 (ip), vehicle: carboxymethylcellulose (CMC)): 292 % of control
T/C (dose: 200.0 mg/kg/injection, schedule: Q04DX002 (ip), vehicle: water): 188 [2 of 3 alive] and 270 % of control
T/C (dose: 200.0 mg/kg/injection, schedule: Q04DX003 (ip), vehicle: carboxymethylcellulose (CMC)): 317 % of control
T/C (dose: 200.0 mg/kg/injection, schedule: Q04DX003 (ip), vehicle: water): 521 % of control
T/C (dose: 200.0 mg/kg/injection, schedule: Q04DX003 (oral), vehicle: carboxymethylcellulose (CMC)): 205 % of control
T/C (dose: 200.0 mg/kg/injection, schedule: Q04DX005 (ip), vehicle: carboxymethylcellulose (CMC)): 308, 353, 385 % of control
T/C (dose: 200.0 mg/kg/injection, schedule: Q04DX Z (oral), vehicle: carboxymethylcellulose (CMC)): 278 % of control
T/C (dose: 200.0 mg/kg/injection, schedule: Q08DX002 (ip), vehicle: carboxymethylcellulose (CMC)): 271 % of control
T/C (dose: 200.0 mg/kg/injection, schedule: Q08DX002 (ip), vehicle: water): 548 % of control
T/C (dose: 200.0 mg/kg/injection, schedule: Q08DX002 (oral), vehicle: carboxymethylcellulose (CMC)): 169 % of control
T/C (dose: 200.0 mg/kg/injection, schedule: Q08DX003 (ip), vehicle: carboxymethylcellulose (CMC)): 377 % of control
T/C (dose: 200.0 mg/kg/injection, schedule: Q08DX Z (oral), vehicle: carboxymethylcellulose (CMC)): 238 % of control
T/C (dose: 200.0 mg/kg/injection, schedule: Q## X001 (ip), vehicle: carboxymethylcellulose (CMC)): 329 % of control
T/C (dose: 200.0 mg/kg/injection, schedule: Q## X003 (ip), vehicle: carboxymethylcellulose (CMC)): 493 % of control
T/C (dose: 200.0 mg/kg/injection, schedule: Q## X005 (ip), vehicle: carboxymethylcellulose (CMC)): 427 % of control
T/C (dose: 212.0 mg/kg/injection, schedule: Q01DX001 (ip), vehicle: other): 181, 193, 218 % of control
T/C (dose: 216.0 mg/kg/injection, schedule: Q01DX001 (ip), vehicle: other): 103 % of control
T/C (dose: 216.0 mg/kg/injection, schedule: Q01DX001 (ip), vehicle: steroid suspending solution): 104 % of control
T/C (dose: 225.0 mg/kg/injection, schedule: Q03DX Z (ip), vehicle: carboxymethylcellulose (CMC)): 228 % of control
T/C (dose: 230.0 mg/kg/injection, schedule: Q01DX001 (ip), vehicle: carboxymethylcellulose (CMC)): 189, 232, 325 % of control
T/C (dose: 230.0 mg/kg/injection, schedule: Q07DX Z (ip), vehicle: carboxymethylcellulose (CMC)): 339 and 357 % of control
T/C (dose: 250.0 mg/kg/injection, schedule: Q01DX001 (ip), vehicle: carboxymethylcellulose (CMC)): 214, 235, 236, 254, 279 % of control
T/C (dose: 250.0 mg/kg/injection, schedule: Q12HX004 (ip), vehicle: carboxymethylcellulose (CMC)): 578 % of control
T/C (dose: 250.0 mg/kg/injection, schedule: Q## X001 (ip), vehicle: carboxymethylcellulose (CMC)): 305 % of control
survivor count (dose: 252.0 mg/kg/injection, schedule: Q01DX006 (iv), vehicle: carboxymethylcellulose (CMC)): 0 of 6
T/C (dose: 252.0 mg/kg/injection, schedule: Q01DX Z (im), vehicle: carboxymethylcellulose (CMC)): 121 and 148 % of control
T/C (dose: 252.0 mg/kg/injection, schedule: Q01DX Z (ip), vehicle: carboxymethylcellulose (CMC)): 95 % of control
T/C (dose: 252.0 mg/kg/injection, schedule: Q01DX Z (oral), vehicle: carboxymethylcellulose (CMC)): 125 % of control
T/C (dose: 252.0 mg/kg/injection, schedule: Q01DX Z (sc), vehicle: carboxymethylcellulose (CMC)): 123 and 127 % of control [5 of 6 alive]
T/C (dose: 266.0 mg/kg/injection, schedule: Q01DX001 (ip), vehicle: clinical formulation): 96 and 250 % of control
T/C (dose: 274.4 mg/kg/injection, schedule: Q01DX001 (ip), vehicle: steroid suspending solution): 395 % of control
T/C (dose: 300.0 mg/kg/injection, schedule: Q01DX001 (ip), vehicle: carboxymethylcellulose (CMC)): 231, 240, 274, 300, 309, 490 % of control
T/C (dose: 300.0 mg/kg/injection, schedule: Q01DX001 (oral), vehicle: carboxymethylcellulose (CMC)): 147 % of control
T/C (dose: 300.0 mg/kg/injection, schedule: Q01DX005 (oral), vehicle: carboxymethylcellulose (CMC)): 147 % of control
T/C (dose: 300.0 mg/kg/injection, schedule: Q01DX017 (oral), vehicle: steroid suspending solution): 107 [7 of 8 alive] and 134 % of control [7 of 8 alive]
T/C (dose: 300.0 mg/kg/injection, schedule: Q01DX Z (sc), vehicle: carboxymethylcellulose (CMC)): 209 % of control
T/C (dose: 300.0 mg/kg/injection, schedule: Q03HX008 (oral), vehicle: carboxymethylcellulose (CMC)): 121 % of control
T/C (dose: 300.0 mg/kg/injection, schedule: Q04DX003 (ip), vehicle: carboxymethylcellulose (CMC)): 336 % of control
T/C (dose: 300.0 mg/kg/injection, schedule: Q04DX004 (ip), vehicle: other): 161 % of control
T/C (dose: 300.0 mg/kg/injection, schedule: Q04DX005 (ip), vehicle: carboxymethylcellulose (CMC)): 385 % of control
T/C (dose: 300.0 mg/kg/injection, schedule: Q04DX005 (oral), vehicle: carboxymethylcellulose (CMC)): 247 % of control
